Data as given in PubChem BioAssay AID248 (DTP/NCI, 2004).
The list shows only some results of the screen, not a fair sample: it is rich in T/C values a quarter to a half above the control, in often repeated tests (any T/C) and in doses without a T/C. Other doses and runs of a compound stand elsewhere. T/C: endpoint of the treated group in % of that of the vehicle group. Some entries give survivors of the animals treated and no T/C: the source files T/C as zero there, which appears to mark a toxic dose or a test without result, not a measured value. Some survivor counts are full or nearly so, which does not show that the dose was tolerated: survival well below the control is almost never listed, so the zero probably covers shortened survival too. Survivors were counted at the toxicity check, usually on the fifth day, unless a day is given; later deaths do not show. Schedules are NCI's codes, taken here to give the interval after Q, in days (D) or hours (H), and the number of doses after X. Some schedules carry Z or #; the key to these is not given. Some entries were tested several times; their values stand side by side, smallest first. Where survival is the endpoint, this PubChem deposit counts one and a half times the control or more as active, and values a quarter to a half above the control carry no call in these data; other NCI protocols may use other cut-offs.

System: L1210 leukemia ip in BDF1 mice, survival T/C
Test: NCI In Vivo Anticancer Drug Screen. Data for tumor model L1210 Leukemia (intraperitoneal) in B6D2F1 (BDF1) mice
Conditions: T/C endpoint: mean survival time, higher T/C = longer survival
[1] = dose: 400.0 mg/kg/injection, schedule: Q01DX001 (ip), vehicle: saline
[2] = dose: 100.0 mg/kg/injection, schedule: Q01DX001 (ip), vehicle: carboxymethylcellulose (CMC)
[3] = dose: 400.0 mg/kg/injection, schedule: Q01DX009 (ip), vehicle: saline with Tween-80
[4] = dose: 400.0 mg/kg/injection, schedule: Q04DX003 (ip), vehicle: saline with Tween-80

## COCCNCCN1CCN(CCCN2c3ccccc3Sc3ccc(C(F)(F)F)cc32)CC1
dose: 6.25 mg/kg/injection, schedule: Q04DX003 (ip), vehicle: saline
  survivor count: 3 of 6
dose: 50.0 mg/kg/injection, schedule: Q01DX009 (ip), vehicle: saline
  survivor count: 2 of 6
dose: 100.0 mg/kg/injection, schedule: Q04DX003 (ip), vehicle: saline
  survivor count: 3 of 6

## CCC1(C)N=C(N)Nc2nc3ccccc3n21 (stereo not drawn)
[1]
  survivor count: 0 of 6

## CCOC(=O)c1ccc(N(CCC(=O)CBr)C(C)=O)cc1
dose: 80.0 mg/kg/injection, schedule: Q01DX001 (ip), vehicle: carboxymethylcellulose (CMC)
  survivor count: 0 of 4
[2]
  survivor count: 0 of 4
dose: 200.0 mg/kg/injection, schedule: Q01DX001 (ip), vehicle: carboxymethylcellulose (CMC)
  survivor count: 0 of 4
dose: 400.0 mg/kg/injection, schedule: Q01DX001 (ip), vehicle: carboxymethylcellulose (CMC)
  survivor count: 0 of 4

## c1ccc(N/N=C2/CCN3CCCc4cccc2c43)cc1
dose: 12.5 mg/kg/injection, schedule: Q01DX009 (ip), vehicle: DMSO
  survivor count: 6 of 6
dose: 50.0 mg/kg/injection, schedule: Q01DX009 (ip), vehicle: DMSO
  survivor count: 5 of 6
dose: 200.0 mg/kg/injection, schedule: Q04DX003 (ip), vehicle: gum acacia
  survivor count: 0 of 6
dose: 400.0 mg/kg/injection, schedule: Q04DX003 (ip), vehicle: gum acacia
  survivor count: 0 of 6

## O=C(Nc1cccc([N+](=O)[O-])c1)Oc1ccc(-c2ccccc2)cc1
[3]
  survivor count: 3 of 3

## CC(C)(C)C(=O)CC(=O)C(C)(C)C
[4]
  survivor count: 0 of 6

## Cc1cnc(SCc2ccc(Cl)cc2)nc1N(Cc1ccccc1)Cc1ccccc1
dose: 200.0 mg/kg/injection, schedule: Q01DX Z (ip), vehicle: methylcellulose (MC)
  survivor count: 5 of 6

## CC(O)CNC(=S)c1ccccc1 (stereo not drawn)
dose: 400.0 mg/kg/injection, schedule: Q04DX002 (ip), vehicle: saline with Tween-80
  survivor count: 1 of 3

## O=C(O)c1cccc(F)c1O
[1]
  survivor count: 1 of 4

## Cc1ccc(NC(=O)Oc2ccc([N+](=O)[O-])cc2)cc1S(=O)(=O)F
[3]
  survivor count: 0 of 3 and 4 of 6
[4]
  survivor count: 0 of 3

## CC1(OC(=O)c2ccc([N+](=O)[O-])cc2)CC2CC1c1ccccc12 (stereo not drawn)
[2]
  survivor count: 4 of 4

## CCOc1cc[n+]([O-])cc1
dose: 400.0 mg/kg/injection, schedule: Q01DX001 (ip), vehicle: Klucel (hydroxypropylcellulose) (HPC)
  survivor count: 1 of 3
dose: 400.0 mg/kg/injection, schedule: Q04DX003 (ip), vehicle: saline
  survivor count: 1 of 6

## N#Cc1cn(C2OC(CO)C(O)C2O)c2ncncc12 (stereo not drawn)
dose: 100.0 mg/kg/injection, schedule: Q01DX005 (ip), vehicle: saline
  T/C: 139 % of control
dose: 200.0 mg/kg/injection, schedule: Q01DX005 (ip), vehicle: saline
  survivor count: 0 of 6

## CC[C@H](/C=C/[C@@H](C)[C@H]1CC[C@H]2[C@@H]3CC=C4C[C@@H](OC(=O)/C=C\C(=O)O)CC[C@]4(C)[C@H]3CC[C@]12C)C(C)C
dose: 50.0 mg/kg/injection, schedule: Q01DX009 (ip), vehicle: water
  survivor count: 3 of 6
dose: 100.0 mg/kg/injection, schedule: Q01DX001 (ip), vehicle: water
  survivor count: 0 of 6
dose: 100.0 mg/kg/injection, schedule: Q04DX003 (ip), vehicle: other
  survivor count: 1 of 6
dose: 200.0 mg/kg/injection, schedule: Q01DX001 (ip), vehicle: water
  survivor count: 0 of 6
dose: 400.0 mg/kg/injection, schedule: Q01DX001 (ip), vehicle: water
  survivor count: 0 of 6

## C=C1Sc2ccccc2N1C
dose: 50.0 mg/kg/injection, schedule: Q01DX015 (ip), vehicle: saline
  survivor count: 2 of 6
dose: 100.0 mg/kg/injection, schedule: Q01DX015 (ip), vehicle: saline
  survivor count: 0 of 6
dose: 200.0 mg/kg/injection, schedule: Q01DX015 (ip), vehicle: saline
  survivor count: 3 of 6

## CC(/C=N/N=C(\N)N(C)C)=N\N=C(/N)N(C)C
dose: 480.0 mg/kg/injection, schedule: Q01DX Z (ip), vehicle: carboxymethylcellulose (CMC)
  survivor count: 3 of 6
